{"sequences": {"note": "Amino acid sequences for entries named in this document (tags omitted). A change or cut given only in a name is not applied to a line headed by its entry.", "UniProt Q0PA06": "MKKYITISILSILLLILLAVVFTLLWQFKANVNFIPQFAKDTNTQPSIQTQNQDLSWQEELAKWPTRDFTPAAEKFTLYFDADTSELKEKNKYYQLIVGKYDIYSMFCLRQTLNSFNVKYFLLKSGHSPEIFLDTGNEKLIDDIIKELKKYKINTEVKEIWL"}, "source": "paper PMC12222027", "about": "“In situ structure of a bacterial flagellar motor at subnanometre resolution reveals adaptations for increased torque” (Nature Microbiology, 2025)", "target": "T1, PflB-3×FLAG (C. jejuni NCTC11168, strain CSS-5716) (C. jejuni NCTC11168)", "T1 sequence": "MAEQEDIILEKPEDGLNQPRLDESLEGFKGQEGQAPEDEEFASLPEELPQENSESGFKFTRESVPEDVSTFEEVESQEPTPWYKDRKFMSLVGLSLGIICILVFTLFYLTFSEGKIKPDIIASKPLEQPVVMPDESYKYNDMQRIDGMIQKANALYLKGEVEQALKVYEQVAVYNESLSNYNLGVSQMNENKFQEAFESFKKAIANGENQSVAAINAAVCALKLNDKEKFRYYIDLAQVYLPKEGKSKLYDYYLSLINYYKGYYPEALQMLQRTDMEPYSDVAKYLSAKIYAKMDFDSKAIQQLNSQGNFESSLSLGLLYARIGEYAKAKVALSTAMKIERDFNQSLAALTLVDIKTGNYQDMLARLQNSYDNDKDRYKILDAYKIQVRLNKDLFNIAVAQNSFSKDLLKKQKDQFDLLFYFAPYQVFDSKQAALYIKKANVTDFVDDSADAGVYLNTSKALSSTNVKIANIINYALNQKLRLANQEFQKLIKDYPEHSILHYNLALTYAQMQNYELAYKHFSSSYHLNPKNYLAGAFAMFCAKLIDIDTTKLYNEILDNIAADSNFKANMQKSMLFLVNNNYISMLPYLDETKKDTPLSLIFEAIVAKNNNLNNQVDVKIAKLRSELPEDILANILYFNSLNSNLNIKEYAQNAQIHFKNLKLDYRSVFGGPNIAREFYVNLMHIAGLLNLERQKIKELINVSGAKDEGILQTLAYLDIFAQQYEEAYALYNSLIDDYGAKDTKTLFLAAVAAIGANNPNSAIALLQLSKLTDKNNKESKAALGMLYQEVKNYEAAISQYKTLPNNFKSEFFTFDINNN", "assay": "co-IP; chromosomally tagged C. jejuni NCTC11168 strains; cleared lysates with anti-FLAG antibody and Protein A-Sepharose, 4 °C, buffer A (20 mM Tris-HCl pH 8, 1 mM MgCl2, 150 mM KCl, 1 mM dithiothreitol); western blot with FlgP antisera or anti-GFP", "note": "These are yes or no findings as the source states them, for the method shown. Binding seen in cells or lysates may run through a third protein. Binding can be weak; no strength is given. Sequences can lack the tags named with a protein."}
{"substance": "PflD-sfGFP (Cj0892c, C. jejuni NCTC11168) (from UniProt Q0PA06)", "values": [{"measurement": "binding", "result": "binds"}]}
